Experimental findings from publication PMC5171795 are described below.

Amino acid sequences for entries named in this document (tags omitted).
UniProt P42225, whole entry, stated change not applied: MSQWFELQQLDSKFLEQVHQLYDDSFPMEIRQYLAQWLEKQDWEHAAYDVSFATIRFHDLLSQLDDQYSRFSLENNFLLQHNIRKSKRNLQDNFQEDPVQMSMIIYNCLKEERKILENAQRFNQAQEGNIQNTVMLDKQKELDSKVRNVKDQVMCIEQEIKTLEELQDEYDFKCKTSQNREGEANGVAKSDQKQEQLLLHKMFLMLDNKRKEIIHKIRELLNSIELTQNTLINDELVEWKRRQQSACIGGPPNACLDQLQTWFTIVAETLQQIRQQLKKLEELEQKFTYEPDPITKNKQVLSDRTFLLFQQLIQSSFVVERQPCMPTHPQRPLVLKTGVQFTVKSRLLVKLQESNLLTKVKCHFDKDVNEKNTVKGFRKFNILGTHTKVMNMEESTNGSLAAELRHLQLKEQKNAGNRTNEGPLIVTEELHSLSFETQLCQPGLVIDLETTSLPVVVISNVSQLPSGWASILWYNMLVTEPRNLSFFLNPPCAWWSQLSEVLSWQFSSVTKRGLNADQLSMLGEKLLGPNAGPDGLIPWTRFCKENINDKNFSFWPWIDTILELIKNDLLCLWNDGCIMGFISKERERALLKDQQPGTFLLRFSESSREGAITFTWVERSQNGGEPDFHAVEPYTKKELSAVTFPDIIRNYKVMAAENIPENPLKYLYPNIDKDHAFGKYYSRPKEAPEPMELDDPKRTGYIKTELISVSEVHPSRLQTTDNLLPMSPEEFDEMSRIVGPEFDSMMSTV

The exact form of at least one protein or probe is not confirmed. Where cells or extracts were used, other partners may take part. For part of these data: Weaker means in comparison with the reference protein, sequence or condition of that experiment.

Common to all, as to experiment: EMSA supershift
In one data set the target is STAT1 (mouse) (UniProt P42225). The following applies: 200x unlabelled self probe competes, anti-STAT1 reduces band and supershifts; 2 ug nuclear protein, Thermo Scientific EMSA kit binding buffer (composition and pH not given), 30 min, room temperature; 6% polyacrylamide gel in Tris-borate EDTA; protein in an extract; label: biotin. (In general: A gel shift assay detects complexes by their altered migration in electrophoresis.)

In data set [1] the target is STAT1 (ΔRaptor osteoblast extract) (mouse) (UniProt P42225). Particulars: ΔRaptor extract, binding decreased vs control; 2 ug nuclear protein, Thermo Scientific EMSA kit binding buffer (composition and pH not given), 30 min, room temperature; 6% polyacrylamide gel in Tris-borate EDTA; protein in an extract; label: biotin.
The target of data set [2] is STAT1 (ΔTsc1 osteoblast extract) (mouse) (UniProt P42225). The following applies: ΔTsc1 extract, binding elevated vs control; 2 ug nuclear protein, Thermo Scientific EMSA kit binding buffer (composition and pH not given), 30 min, room temperature; 6% polyacrylamide gel in Tris-borate EDTA; protein in an extract; label: biotin.

Consider “CCTTACTATAAACTCC (double strand) [Cxcl9 promoter γ-RE1 STAT1-binding-site probe]”, for which the binding result with STAT1 (mouse) is recorded as “binds”; in data set [1] it was “binds more weakly”; in data set [2], “binds”.
